Screen size: about 53,000 sequences; about 3,700 (7%) were called active.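 Rule for the calls: active = gene knockdowns whose robust z-score for IL-1 alpha signal is at least 2 or at most -2, so actives lie on both sides; inactive = the rest.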 The list shows a part of the results.

The nature of this test: Components of the Cytosolic LPS Sensing Pathway: Gene Identification via Genome-wide siRNA Screen.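 Note: robust z of the log signal after scaling to non-targeting control siRNA wells of the plate.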 Particulars: RAW264.7 macrophages, IL-1a HTRF, actives lie on both sides, screened at 100 nM (by protocol), cells primed 5 h with Pam3CSK4 first. The essentials: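 Read-out: IL-1a HTRF on supernatant, divided by plate negative-control median ×100, log-transformed and converted to robust z-score. Cells were RAW264.7 given 100 nM siRNA, Pam3CSK4-primed 5 hours, then LipidA-transfected 24 hour.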
For “CCACCGAAUUCGGAAAACATT against St6galnac2”, the z-score was inactive: 1.81. With CCACAGACCUCACUUUUGGTT against Dpy30, the z-score was inactive: -1.4. Consider GGGACAGACUGAAAAAUUCTT against Pde4d, for which the z-score is inactive: -0.521. With GGACCUGAACGAUCUCGUUTT against Cyp4a12a the figure was inactive: 1.65. Turning to “GGGAAGCCAAACAGAAUCATT against 1700041G16Rik”, the z-score was inactive: 1.54. For GGUUACCUGCUGUGUUUUGTT against Muc2, the z-score was inactive: -0.0832. In the case of CCACUUCUCAGGUUAAUGGTT against Fen1, the z-score was inactive: -0.611. As for GGAAAACAACACGAUGAAATT against Tex13b, the z-score is inactive: -1.72.

For the sequence GAGGGCCAUCUCUGACAUGTT against Avp, the z-score was inactive: 0.369. Take GGAGCUGUUCAUCGAACAATT against Nol7: the z-score was inactive: 0.864. Consider GGUAUUCUUGGAAGGAGGGTT against Prss22, for which the z-score is inactive: 0.153. Regarding GGACAAGAAGCUGUCCAAGTT against Atoh7, the z-score is inactive: 0.103. As for GGUUUAUGAUCCACUUUCCTT against Ipp, the z-score was inactive: -0.538. On to GCACCUCCACAAGAAUGAATT against Six2, for which the z-score was inactive: 0.466.

As to GAAUUUGGACAUAGUUAUGTT against Ptcra, the z-score is inactive: 0.6. Take GGCAAAAAUACCCAAUUUUTT against Timm22: the z-score is inactive: -1.12.

In the case of GCAGUUUGUGGAUAUGUCATT against Treh, the z-score is inactive: 0.604.

For the sequence GGAACAGGAAUAACAUGACTT against Vmn1r69, the z-score was inactive: 1.04. Regarding GGAGGUUCUACCCUGUUCATT against Actr1a, the z-score is inactive: 0.48. Then GGGUUAUGAAGAAGCUCCUTT against Olfr1262, with inactive: -1.52; and GGUUGUGGAAUGCAUCGGATT against Atp11b, with inactive: -1.31; and GGACAAGAAAAGGAAGAAGTT against Ap3d1, with inactive: -0.656. With GGUGAAACUGGAAGAUUCUTT against B3gntl1 the figure was inactive: 1.25; with GCUAGUUUAAGAGACUUUGTT against Nfatc2ip, inactive: 0.234; with GGUGUUUCAUUAACAGGAATT against Spaar, inactive: -0.104. On to GCUCUAUCAAGCUGACGGGTT against Cluap1, for which the z-score was inactive: 0.283. With GGUGGUAACGGAAAACCUGTT against Wnt10b, the z-score was inactive: 0.496. In the case of GGAAGCUCAUUUUCACGUGTT against Slc22a19, the z-score was inactive: 1.55.

Consider GGUUUGCCUAUUUUUUCUUTT against Trmt10c, for which the z-score is inactive: 1.9. “GGGCUUGAGAAAGAGGAUUTT against E330021D16Rik”: the z-score is inactive: 0.672. On to GCGGUUCUUACCAAGGACATT against Shf, for which the z-score is inactive: -0.415. In the case of GGACGACGACUUUUUAAAATT against Pnmal1, the z-score was active: 2.18. In the case of GGGAGCACCAGCAAUGGAUTT against Col17a1, the z-score is inactive: 0.192. With GGAAAUUUGGAUUGAUGAATT against Mef2c, the z-score was inactive: -0.909. For GGACAAUAUGAGUUUUCUGTT against Glb1, the z-score was inactive: 0.732. Take GCGAAUCAUGAAAUACCAGTT against Arhgef25: the z-score was inactive: -0.0921. Then CGAUAAAGUCGAAAUCUACTT against Stat2, with inactive: 0.672; and GGAUACAUUGAGAAAGACUTT against Tor1aip2, with active: 2.43; and GGCUCUCAAACCCAUGUACTT against Foxf2, with inactive: -0.799. Then GCUGAUCACAAACGAUUACTT against Arl9, with inactive: 0.559; and CCCAAGAGAAAACGGUGCCTT against Fscn1, with inactive: -1.07; and GGUAACUUCAGUCUUGUUATT against Marf1, with inactive: -0.131. Take GGGAUCCUCAGAAGGUGAATT against Agfg2: the z-score is inactive: -0.786.

Take GCUCAGAAGUCCAAGAUACTT against Casp12: the z-score was inactive: -1.86. On to GGGUGCUCUGAAGAAGCAATT against Olfr488, for which the z-score was active: -2.04. Take GGAGCGGAGAGAAAGCAUCTT against Mpo: the z-score was inactive: -0.649. For the sequence CGGUGCACAACGUACCAAUTT against Srxn1, the z-score is inactive: -0.0189. With GGAAUGACUUCCCUACAAUTT against Dcun1d4, the z-score is inactive: 0.175.

Take CGGACUGAUAACUUGGGAATT against Mtpn: the z-score was inactive: 0.435. Then GGUGACAAACUGAUUUUAATT against Mov10l1, with inactive: -0.492; and CGAUGCAUUUUAAAGAUGUTT against Pde8b, with inactive: -0.121; and GGUUUUGUGAGCAACCUGCTT against Abcb6, with inactive: 0.346.

In the case of UAGACACUAACCAGCUGGATT against Olfr1307, the z-score was inactive: 1.12. Regarding GCAGCAGUAAUGAUGGAUCTT against Ncoa3, the z-score was active: 2.47. GGUAACUUCUCAUCUCAACTT against Mapkapk3: the z-score was inactive: 0.339. Regarding GGGCUUUUUCAACAGAGGCTT against Fam241b, the z-score is inactive: 0.172. On to CCAUUACUCAUCGAGAGUGTT against Cenpl, for which the z-score was inactive: 0.101. Turning to GGCCUACCUUACCCUAAGATT against Adam32, the z-score was inactive: 0.513. As to GCGAAGCUAGGUUUACUGUTT against Gpr132, the z-score is inactive: 1.02. For the sequence GGUUUUUAAGGCUGUUUACTT against Ttc23, the z-score is inactive: -0.521. Regarding GGAAAUGAAGCCAAAAUAATT against Rab33b, the z-score is inactive: 0.24. In the case of GGGCCUAUAUAACAUCUUGTT against Usp11, the z-score was inactive: 0.306.

For the sequence GCUGAACCUAUGAGGGAGATT against Gpank1, the z-score was inactive: 0.809. Then GGGUCAAAAGAUAUUUGUCTT against Pitpna, with inactive: 0.772. As for GGUGUUCCACCCAACUCAATT against Sil1, the z-score is inactive: -0.226. With GCUAGGACAUUCAUUCAACTT against Bbs12 the figure was inactive: -0.605; with CCAGAACUCUCGACACCCUTT against Tlx1, inactive: 1.61; with “GCAAAUUGACCAGUCUUUUTT against D230025D16Rik”, inactive: 0.00876.

Consider GGUACUUGUAUUGCUCAUUTT against Asf1b, for which the z-score was inactive: 0.151. GGAUUAAAGGCCAUAAGGATT against Zfp747: the z-score was inactive: -0.813.

On to GGGCACAUUCAGAUGUUCGTT against Nmnat2, for which the z-score is inactive: 0.438.

Take CCAGGAGAACAGGAUAUAUTT against Fgr: the z-score was inactive: 0.49. On to GCAGAACCUUGGAAAAAAATT against Mef2a, for which the z-score was inactive: -1.72. CCAUGGCCAAGAACUAGUUTT against Hp: the z-score is inactive: 1.26. GGAUUUUGAAGAUGCUUGUTT against Naa35: the z-score is inactive: -0.518.

For the sequence GGACUACUUUAAGGAUUGGTT against Tfip11, the z-score is active: -2.97.

Consider CGAGUACCAUCUUUAUCCATT against Hlcs, for which the z-score was inactive: -1. In the case of GGCAACUCCGUAUUAUAACTT against Pcdhb10, the z-score was inactive: 1.02. GGCUCAUCAAAGGAAGAAATT against Araf: the z-score was inactive: 0.67. CCUUCAAUCUUUCUUUCUGTT against Olfr1465: the z-score is inactive: -0.635. With “CCAUGAAGACAGGACACUUTT against 4930451E10Rik”, the z-score was inactive: -0.0509. With CAAUAAUGAACAGUAGAGUTT against Olfr798 the figure was inactive: 0.259; with CCCGACUUCAGGAUGACAATT against Sigirr, inactive: 0.143. For GGUAAUGAUCCAUUCACCATT against Ly75, the z-score was inactive: -1.47. In the case of GCAGAAGUUCAUUUUCCUATT against Olfr145, the z-score was inactive: 0.969. Consider CGUGAAGGACAUGUCUAAATT against Sike1, for which the z-score was inactive: 0.186. Then GGGAUAGGAUUGCAUCAGUTT against Olfr356, with inactive: -1.69. For the sequence CGGUGCCCUACAUGCUAAATT against Ebi3, the z-score is inactive: 1.72. In the case of GGGAUAUGUGAAGCCUCAGTT against Mospd3, the z-score was inactive: -1.21. Consider GGAUGGUUUUCGUCUGACGTT against Umod, for which the z-score was inactive: -0.151. As for GCAUGUUAAGGGCAAUGGUTT against Fem1al, the z-score is inactive: 0.375.

For the sequence GGAGUCCUGUUCUUCUUUATT against Trpv4, the z-score was inactive: -0.854. Regarding GGCGCACACUUUCACCUAATT against Tmem170, the z-score was inactive: 0.194. With GGGUUAUCAACAAAAAUGATT against Agtr1b, the z-score was inactive: -0.433. For the sequence GUGUGCCACAUACUGGUCCTT against Olfr806, the z-score is inactive: 0.62. With GCGUGUAAUAUUCAUCAUATT against Pdss1 the figure was inactive: 1.67. Consider CCUCAGGUUAUUGAAUAUUTT against Rapgef6, for which the z-score was inactive: 0.502. GGAUUUCAUGAUUCAGGGUTT against Ppih: the z-score is inactive: -0.283. Regarding GGUCUUAUGGGAAAAUUAGTT against Lamc2, the z-score was inactive: -0.000598. With GGGAGCUGAACACAAACACTT against Trav3-3 the figure was inactive: 0.191; with CGUAAGACGGAUGUACAUCTT against Smco1, inactive: 0.846; with GGAAGUGGAACACAUGAUCTT against Zfp346, inactive: -0.449. Turning to CCAUCCAGUCCCUAAGAAATT against Zcwpw1, the z-score was inactive: -0.256. For the sequence GGAAGAAGACGGACUUCGGTT against Vapb, the z-score is inactive: -1.3. With GCCCUUACAUAAUAGCUUGTT against Tacr2, the z-score is inactive: 1.56. With GUCAUCAUGGGUCCUGAGATT against Vmn1r193 the figure was inactive: -0.754; with GGACAAUUUUUCUUCUCCATT against Tsnax, inactive: -0.744.

For the origin of these results see PubChem BioAssay AID1508600 (Functional Genomics Laboratory (NCATS/FGL), 2020).
